{
  "source": "patent US20030114403A1",
  "about": "“Method for treatment of cancers and antineoplastic pharmaceutical formulations” (CANADA Inc., priority 2001, published 2003)",
  "key": {"[1]": {"test_system": "Ehrlich ascites", "experiment": "Ehrlich ascites in A2G mice, single intraperitoneal treatment", "experimental": "Normal A2G mice were transplanted 24 hours prior to treatment with 1,000,000 Ehrlich ascites cells. Treatment procedures consisted of a single intraperitoneal injection of malachite green 4/mg/kg or brilliant green 2 mg/kg, with or without 0.7% levorotatory lactic acid.\nA lot of 50 A2G mice with a bodyweight of approximately 25 g each were infected with Ehrlich ascites 48 hours prior to treatment. Treatment consisted of one intraperitoneal injection of 1.0 cm^3 brilliant green 1:20,000 solution (2 mg per kilogram) or 1.0 cm^3 of malachite green 1:10,000 (4 mg per kilogram), with 0.7% levorotatory lactic acid."}, "[2]": {"test_system": "Ehrlich ascites cells", "experiment": "Transmission electron microscopy of Ehrlich ascites cells from intraperitoneal liquid after treatment", "type": "cell-based, A2G mice"}},
  "note": "At least one compound was matched to its structure with a doubt left.",
  "data": [
    {"smiles": "CCN(CC)c1ccc(C(=C2C=CC(=[N+](CC)CC)C=C2)c2ccccc2)cc1", "note": "[brilliant green]", "values": [
      {"measurement": "resolution of Ehrlich ascites", "setting": "[1]; single intraperitoneal injection, malachite green 4/mg/kg or brilliant green 2 mg/kg, with or without 0.7% levorotatory lactic acid", "value": "ability to resolve Ehrlich ascites"},
      {"measurement": "effect of blocking malignancies", "setting": "[1]; with lactic acid as specific vector and metabolite, in vitro and in vivo", "value": "irreversible effect of blocking malignancies both in vitro and in vivo"},
      {"measurement": "ultrastructural modifications (TEM)", "setting": "[2]; one hour after the treatment", "value": "The cytoplasm matrix and the nucleoplasm have started to become rarefied. The nucleus and the mitochondria start to become swollen"},
      {"measurement": "inactivation of malignant cells (electron microscope study of intraperitoneal liquid samples)", "setting": "[2]; one i.p. injection of brilliant green 1:20,000 (2 mg per kilogram) or malachite green 1:10,000 (4 mg per kilogram) with 0.7% levorotatory lactic acid, samples at different times", "value": "complete inactivation of the malignant cells"},
      {"measurement": "morphology (TEM) of ascites cells in peritoneal fluid", "setting": "[2]; two weeks post treatment", "value": "characteristic cytostatic morphology consistent with interruption of cell cycling"}
    ]}
  ]
}
